Taken from: PubChem BioAssay AID1224830 (NIAID, 2016)

Assay: 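Regulators of TLR4 signalling towards TNF-alpha in macrophage-like cells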 (primary screen)
System: human THP-1 monocytic leukaemia cells, TNF dual-luciferase reporter clone, PMA-differentiated to macrophage-like cells
Reagent: siRNA pool against human genes, 50 nM
Timing: LPS for 4 h, given about 3 days after siRNA transfection
Conditions: bacterial LPS (TLR4 ligand), 10 ng/ml
Detection: 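TNF firefly reporter luminescence divided by renilla, normalised to the plate median, then turned into a robust z-score for each replicate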
Direction: TNF reporter robust z-score: higher = stronger TNF reporter response to LPS
Hit rule: 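Each well counts as active if its z-score is over 2.8 or under -1.5; controls are left without a call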
The deposit covers about 18,000 reagents; this is a part drawn at random. About 2,900 of them (16%) count as active. 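Calls are made per well; low scores hint the gene aids the LPS response, high scores that it dampens it.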 Repeated entries: four replicate wells of each siRNA pool. Reagent sequences are not shown.

target	TNF reporter robust z-score	Outcome
MCM7 (minichromosome maintenance complex component 7)	-0.31	inactive
MCM7 (minichromosome maintenance complex component 7)	0.81	inactive
MCM7 (minichromosome maintenance complex component 7)	-0.36	inactive
MCM7 (minichromosome maintenance complex component 7)	-0.76	inactive
CD48 (CD48 molecule)	1.55	inactive
CD48 (CD48 molecule)	0.53	inactive
CD48 (CD48 molecule)	1.35	inactive
CD48 (CD48 molecule)	2.03	inactive
SPDYE3 (speedy/RINGO cell cycle regulator family member E3)	-1.09	inactive
SPDYE3 (speedy/RINGO cell cycle regulator family member E3)	0.62	inactive
SPDYE3 (speedy/RINGO cell cycle regulator family member E3)	-0.37	inactive
SPDYE3 (speedy/RINGO cell cycle regulator family member E3)	0.79	inactive
PCSK4 (proprotein convertase subtilisin/kexin type 4)	0.59	inactive
PCSK4 (proprotein convertase subtilisin/kexin type 4)	0.01	inactive
PCSK4 (proprotein convertase subtilisin/kexin type 4)	1.5	inactive
PCSK4 (proprotein convertase subtilisin/kexin type 4)	0.53	inactive
TESK1 (testis associated actin remodelling kinase 1)	-0.65	inactive
TESK1 (testis associated actin remodelling kinase 1)	-0.76	inactive
TESK1 (testis associated actin remodelling kinase 1)	-1.6	active
TESK1 (testis associated actin remodelling kinase 1)	-0.13	inactive
PHF14 (PHD finger protein 14)	0.8	inactive
PHF14 (PHD finger protein 14)	-0.35	inactive
PHF14 (PHD finger protein 14)	-1.74	active
PHF14 (PHD finger protein 14)	0.5	inactive
WBP1L (WW domain binding protein 1 like)	0.74	inactive
WBP1L (WW domain binding protein 1 like)	0	inactive
WBP1L (WW domain binding protein 1 like)	-0.36	inactive
WBP1L (WW domain binding protein 1 like)	0.12	inactive
ENPEP (glutamyl aminopeptidase)	0.09	inactive
ENPEP (glutamyl aminopeptidase)	-0.1	inactive
ENPEP (glutamyl aminopeptidase)	-0.68	inactive
ENPEP (glutamyl aminopeptidase)	0.83	inactive
EYS (EGF-like photoreceptor maintenance factor)	-0.46	inactive
EYS (EGF-like photoreceptor maintenance factor)	0.2	inactive
EYS (EGF-like photoreceptor maintenance factor)	-0.5	inactive
EYS (EGF-like photoreceptor maintenance factor)	0.19	inactive
CYP27C1 (cytochrome P450 family 27 subfamily C member 1)	-0.37	inactive
CYP27C1 (cytochrome P450 family 27 subfamily C member 1)	0.6	inactive
CYP27C1 (cytochrome P450 family 27 subfamily C member 1)	-0.5	inactive
CYP27C1 (cytochrome P450 family 27 subfamily C member 1)	-0.2	inactive
OR52H1 (olfactory receptor family 52 subfamily H member 1)	-0.61	inactive
OR52H1 (olfactory receptor family 52 subfamily H member 1)	0.01	inactive
OR52H1 (olfactory receptor family 52 subfamily H member 1)	-0.33	inactive
OR52H1 (olfactory receptor family 52 subfamily H member 1)	0.18	inactive
DAZ1 (deleted in azoospermia 1)	-0.77	inactive
DAZ1 (deleted in azoospermia 1)	-0.1	inactive
DAZ1 (deleted in azoospermia 1)	0.32	inactive
DAZ1 (deleted in azoospermia 1)	-0.45	inactive
ATF7IP2 (activating transcription factor 7 interacting protein 2)	-0.99	inactive
ATF7IP2 (activating transcription factor 7 interacting protein 2)	-1.09	inactive
ATF7IP2 (activating transcription factor 7 interacting protein 2)	-0.37	inactive
ATF7IP2 (activating transcription factor 7 interacting protein 2)	-0.09	inactive

Next part, starting with the last 12 of the part before.
target	TNF reporter robust z-score	Outcome
OR52H1 (olfactory receptor family 52 subfamily H member 1)	-0.61	inactive
OR52H1 (olfactory receptor family 52 subfamily H member 1)	0.01	inactive
OR52H1 (olfactory receptor family 52 subfamily H member 1)	-0.33	inactive
OR52H1 (olfactory receptor family 52 subfamily H member 1)	0.18	inactive
DAZ1 (deleted in azoospermia 1)	-0.77	inactive
DAZ1 (deleted in azoospermia 1)	-0.1	inactive
DAZ1 (deleted in azoospermia 1)	0.32	inactive
DAZ1 (deleted in azoospermia 1)	-0.45	inactive
ATF7IP2 (activating transcription factor 7 interacting protein 2)	-0.99	inactive
ATF7IP2 (activating transcription factor 7 interacting protein 2)	-1.09	inactive
ATF7IP2 (activating transcription factor 7 interacting protein 2)	-0.37	inactive
ATF7IP2 (activating transcription factor 7 interacting protein 2)	-0.09	inactive
NEXMIF (neurite extension and migration factor)	-1.41	inactive
NEXMIF (neurite extension and migration factor)	-1.66	active
NEXMIF (neurite extension and migration factor)	-1.69	active
NEXMIF (neurite extension and migration factor)	-1.39	inactive
COX15 (cytochrome c oxidase assembly factor COX15)	1.5	inactive
COX15 (cytochrome c oxidase assembly factor COX15)	1.4	inactive
COX15 (cytochrome c oxidase assembly factor COX15)	0.05	inactive
COX15 (cytochrome c oxidase assembly factor COX15)	1.81	inactive
SPPL2C (signal peptide peptidase like 2C)	0.69	inactive
SPPL2C (signal peptide peptidase like 2C)	0.35	inactive
SPPL2C (signal peptide peptidase like 2C)	0.86	inactive
SPPL2C (signal peptide peptidase like 2C)	0.89	inactive
AEBP2 (AE binding protein 2)	-0.98	inactive
AEBP2 (AE binding protein 2)	-0.62	inactive
AEBP2 (AE binding protein 2)	-0.5	inactive
AEBP2 (AE binding protein 2)	2.31	inactive
DYNLT4 (dynein light chain Tctex-type 4)	0.75	inactive
DYNLT4 (dynein light chain Tctex-type 4)	-0.02	inactive
DYNLT4 (dynein light chain Tctex-type 4)	-1.63	active
DYNLT4 (dynein light chain Tctex-type 4)	-0.5	inactive
NPDC1 (neural proliferation, differentiation and control 1)	0.77	inactive
NPDC1 (neural proliferation, differentiation and control 1)	-0.31	inactive
NPDC1 (neural proliferation, differentiation and control 1)	0.2	inactive
NPDC1 (neural proliferation, differentiation and control 1)	-0.3	inactive
PTK2B (protein tyrosine kinase 2 beta)	-1.43	inactive
PTK2B (protein tyrosine kinase 2 beta)	-1.18	inactive
PTK2B (protein tyrosine kinase 2 beta)	-1.61	active
PTK2B (protein tyrosine kinase 2 beta)	-1.52	active
CT47A3 (cancer/testis antigen family 47 member A3)	0.83	inactive
CT47A3 (cancer/testis antigen family 47 member A3)	2.22	inactive
CT47A3 (cancer/testis antigen family 47 member A3)	0.96	inactive
CT47A3 (cancer/testis antigen family 47 member A3)	1.21	inactive
SLC6A3	-0.94	inactive
SLC6A3	-1.22	inactive
SLC6A3	-1.13	inactive
SLC6A3	2.39	inactive
TTI2 (TELO2 interacting protein 2)		inactive
PTBP2 (polypyrimidine tract binding protein 2)	0.98	inactive
PTBP2 (polypyrimidine tract binding protein 2)	0.07	inactive
PTBP2 (polypyrimidine tract binding protein 2)	-0.75	inactive
PTBP2 (polypyrimidine tract binding protein 2)	-0.23	inactive
EIF4EBP3	-0.35	inactive
EIF4EBP3	-0.3	inactive
EIF4EBP3	-0.27	inactive
EIF4EBP3	-0.12	inactive
SKIC2 (SKI2 subunit of superkiller complex)	-0.7	inactive
SKIC2 (SKI2 subunit of superkiller complex)	-0.05	inactive
SKIC2 (SKI2 subunit of superkiller complex)	-1.04	inactive
SKIC2 (SKI2 subunit of superkiller complex)	-0.43	inactive
SLC29A3	0.18	inactive
SLC29A3	0.83	inactive
SLC29A3	-0.32	inactive
SLC29A3	-0.78	inactive
NELFB (negative elongation factor complex member B)	2.4	inactive
NELFB (negative elongation factor complex member B)	3.16	active
NELFB (negative elongation factor complex member B)	3.22	active
NELFB (negative elongation factor complex member B)	0.47	inactive
SLMAP (sarcolemma associated protein)	-0.79	inactive
SLMAP (sarcolemma associated protein)	0.87	inactive
SLMAP (sarcolemma associated protein)	-0.58	inactive
SLMAP (sarcolemma associated protein)	-0.99	inactive
